Assay results published in the supplement of paper PMC10470496.
Where a name gives a salt, the structure may show the parent alone. The list shows a part of the results. Single values are uncertain, as repeats are few or missing.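 Three clinical Candida auris isolates (clades III, IV and I) from the CDC resistance isolate bank were grown in RPMI-1640 at 35°C. Growth was background-corrected OD600 relative to same-plate vehicle-only wells. Hits required over 50% inhibition in at least two strains and a plate-corrected B-score above 0.1.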

Experiments:
Experiment in all cases: growth relative to vehicle control (OD600 ratio) (fraction); higher = less inhibition
Settings in all cases: 24 h
C. auris AR-384 = system: C. auris AR-384
C. auris AR-386 = system: C. auris AR-386
C. auris AR-387 = system: C. auris AR-387

Row | Structure (SMILES) | growth (C. auris AR-384; 1 µM) | growth (C. auris AR-384; 10 µM) | growth (C. auris AR-386; 1 µM) | growth (C. auris AR-386; 10 µM) | growth (C. auris AR-387; 1 µM) | growth (C. auris AR-387; 10 µM)
1 | CC#CC(=O)N1CCC[C@H]1c1nc(-c2ccc(C(=O)Nc3ccccn3)cc2)c2c(N)nccn12 [Acalabrutinib (ACP-196)] | 0.74 | 0.78 | 0.74 | 0.86 | 0.67 | 0.71
2 | CC(C)(C)C#Cc1cc(N(C(=O)[C@H]2CC[C@H](C)CC2)[C@H]2CC[C@H](O)CC2)c(C(=O)O)s1 [Lomibuvir (VX-222, VCH-222)] | 1.19 | 1.2 | 1.11 | 0.76 | 0.85 | 1.04
3 | CC1(C)S[C@@H]2[C@H](NC(=O)C(C(=O)O)c3ccccc3)C(=O)N2[C@H]1C(=O)O (some centres undefined) [Carbenicillin disodium] | 0.88 | 0.73 | 0.53 | 0.8 | 0.65 | 0.69
4 | Clc1ccc2c(c1)CCc1cccnc1C2=C1CCNCC1 [Desloratadine] | 0.77 | 0.88 | 1.09 | 0.68 | 0.67 | 0.73
5 | CC[C@H](Nc1ncnc2[nH]cnc12)c1nc2cccc(F)c2c(=O)n1-c1ccccc1 [Idelalisib (CAL-101, GS-1101)] | 0.74 | 0.79 | 0.76 | 1.3 | 0.7 | 0.72
6 | CCc1cnn2c(NCc3ccc[n+]([O-])c3)cc(N3CCCC[C@H]3CCO)nc12 | 1.03 | 0.91 | 0.63 | 1.1 | 1 | 1.13
7 | Cc1c(-c2ccccc2)oc2c(C(=O)OCCN3CCCCC3)cccc2c1=O [Flavoxate HCl] | 0.57 | 0.8 | 0.66 | 0.97 | 0.81 | 0.61
8 | Cc1cn([C@H]2O[C@@H](CO)[C@H](O)[C@H]2F)c(=O)[nH]c1=O [Clevudine] | 0.88 | 0.74 | 0.79 | 0.64 | 0.75 | 0.48
9 | CC(C)OC(=O)C(C)(C)Oc1ccc(C(=O)c2ccc(Cl)cc2)cc1 [Fenofibrate] | 1.04 | 1.11 | 0.62 | 1.06 | 0.71 | 0.74
10 | CCN(CC)CC(=O)Nc1c(C)cccc1C [Lidocaine hydrochloride] | 0.81 | 0.74 | 0.91 | 0.98 | 0.93 | 1.16
11 | CC(=O)OCC(=O)[C@@]12N=C(C)O[C@@H]1C[C@H]1[C@@H]3CCC4=CC(=O)C=C[C@]4(C)[C@H]3[C@@H](O)C[C@@]12C [Deflazacort] | 1.13 | 1.4 | 0.99 | 1.19 | 1.36 | 1.28
12 | CC(C[N+](C)(C)C)OC(N)=O (centres undefined) [Bethanechol chloride] | 0.81 | 0.8 | 0.88 | 1.13 | 0.93 | 1.11
13 | CN[C@@H]1[C@H](O[C@H]2[C@H](O[C@H]3[C@H](O)[C@@H](O)[C@H](NC(=N)N)[C@@H](O)[C@@H]3NC(=N)N)O[C@@H](C)[C@]2(O)CO)O[C@@H](CO)[C@H](O)[C@H]1O [Dihydrostreptomycin sulfate] | 1.36 | 1.45 | 1.06 | 1.41 | 0.89 | 1.17
14 | C[C@H]1COc2c(N3CCN(C)CC3)c(F)cc3c(=O)c(C(=O)O)cn1c23 [Levofloxacin hydrate] | 1.14 | 1.16 | 1.32 | 1.13 | 1.29 | 1.11
15 | Cc1ccc(NC(=O)c2ccc(CN3CC[C@H](N(C)C)C3)c(C(F)(F)F)c2)cc1Nc1nccc(-c2cncnc2)n1 [Bafetinib (INNO-406)] | 1.06 | 1.42 | 1.42 | 0.99 | 0.85 | 0.83
16 | CCOC(=O)CCC(=O)O[C@H]1[C@H](O[C@@H]2[C@@H](C)[C@H](O[C@H]3C[C@@](C)(OC)[C@@H](O)[C@H](C)O3)[C@@H](C)C(=O)O[C@H](CC)[C@@](C)(O)[C@H](O)[C@@H](C)C(=O)[C@H](C)C[C@@]2(C)O)O[C@H](C)C[C@@H]1N(C)C [Erythromycin Ethylsuccinate] | 0.87 | 0.86 | 0.98 | 1.06 | 1.11 | 1.2
17 | CCc1c(Cl)c(O)c(Cl)c(O)c1C(=O)O[C@H]1[C@H](O)[C@H](OC)[C@H](OC/C2=C\C=C\C[C@H](O)/C(C)=C/[C@H](CC)[C@@H](O[C@@H]3OC(C)(C)[C@@H](OC(=O)C(C)C)[C@H](O)[C@@H]3O)/C(C)=C/C(C)=C/C[C@@H]([C@@H](C)O)OC2=O)O[C@@H]1C [Fidaxomicin] | 0.89 | 1.07 | 1.05 | 1.1 | 1.21 | 1.26
18 | NC[C@H]1O[C@H](O[C@H]2[C@H](O)[C@@H](O[C@H]3O[C@H](CO)[C@@H](O)[C@H](N)[C@H]3O)[C@H](N)C[C@@H]2N)[C@H](N)C[C@@H]1O [Tobramycin] | 0.78 | 1.31 | 0.85 | 1.26 | 1.01 | 1.21
19 | CN(C)C/C=C/C(=O)Nc1cc2c(Nc3ccc(F)c(Cl)c3)ncnc2cc1O[C@H]1CCOC1 [Afatinib (BIBW2992) Dimaleate] | 0.93 | 0.77 | 0.7 | 0.95 | 0.85 | 0.95
20 | Nc1ccn([C@@H]2O[C@H](CO)[C@@H](O)[C@@H]2O)c(=O)n1 [Cytarabine] | 0.78 | 1.01 | 0.87 | 0.97 | 0.7 | 1.18
21 | CCN(CC)CC(=O)Nc1c(C)cccc1C [Lidocaine] | 0.63 | 0.6 | 0.68 | 1.02 | 0.84 | 0.75
22 | Cc1ccsc1C(=CCCN1CCC[C@@H](C(=O)O)C1)c1sccc1C [Tiagabine] | 0.79 | 1.08 | 0.94 | 0.87 | 1 | 1.16

Reformatted tab-delimited: part of the list above
Row	Structure (SMILES)	growth (C. auris AR-384; 1 µM)	growth (C. auris AR-384; 10 µM)	growth (C. auris AR-386; 1 µM)	growth (C. auris AR-386; 10 µM)	growth (C. auris AR-387; 1 µM)	growth (C. auris AR-387; 10 µM)
11	CC(=O)OCC(=O)[C@@]12N=C(C)O[C@@H]1C[C@H]1[C@@H]3CCC4=CC(=O)C=C[C@]4(C)[C@H]3[C@@H](O)C[C@@]12C [Deflazacort]	1.13	1.4	0.99	1.19	1.36	1.28
12	CC(C[N+](C)(C)C)OC(N)=O (centres undefined) [Bethanechol chloride]	0.81	0.8	0.88	1.13	0.93	1.11

Further records follow.

Row | Structure (SMILES) | growth (C. auris AR-384; 1 µM) | growth (C. auris AR-384; 10 µM) | growth (C. auris AR-386; 1 µM) | growth (C. auris AR-386; 10 µM) | growth (C. auris AR-387; 1 µM) | growth (C. auris AR-387; 10 µM)
23 | CS(=O)(=O)OCCCCOS(C)(=O)=O [Busulfan] | 1.02 | 0.65 | 1.02 | 1.13 | 1.01 | 0.86
24 | N[C@@H](CCC(=O)N[C@@H](CS)C(=O)NCC(=O)O)C(=O)O [Glutathione] | 0.61 | 1.04 | 0.88 | 1.1 | 0.78 | 1.02
25 | C[C@H]1[C@@H](O)O[C@@H]2O[C@@]3(C)CC[C@H]4[C@H](C)CC[C@@H]1[C@@]24OO3 [Dihydroartemisinin (DHA)] | 0.75 | 0.59 | 0.93 | 1.06 | 0.63 | 0.84
26 | Cc1ccc(C(=O)C(C)CN2CCCCC2)cc1 (centres undefined) [Tolperisone HCl] | 0.76 | 0.78 | 0.77 | 0.52 | 0.56 | 0.71
27 | C/C(=C\C(=O)OCCCCCCCCC(=O)O)C[C@@H]1OC[C@H](C[C@@H]2O[C@H]2[C@@H](C)[C@H](C)O)[C@@H](O)[C@H]1O [Mupirocin] | 0.95 | 0.97 | 0.68 | 0.97 | 0.89 | 0.82
28 | CCC1=C(C)CN(C(=O)NCCc2ccc(S(=O)(=O)NC(=O)N[C@H]3CC[C@H](C)CC3)cc2)C1=O [Glimepiride] | 1.24 | 1.41 | 1.51 | 1.11 | 1.41 | 1.38
29 | CC[C@@H]1/C=C(\C)C[C@H](C)C[C@H](OC)[C@H]2O[C@@](O)(C(=O)C(=O)N3CCCC[C@H]3C(=O)O[C@H](/C(C)=C/[C@@H]3CC[C@H](Cl)[C@H](OC)C3)[C@H](C)[C@@H](O)CC1=O)[C@H](C)C[C@@H]2OC [Pimecrolimus] | 1.21 | 1.63 | 1.18 | 1.11 | 1.18 | 1.47
30 | O=C(O)c1cc(-c2ccc(F)cc2F)ccc1O [Diflunisal] | 0.93 | 0.79 | 0.88 | 0.68 | 0.6 | 0.53
31 | CC[C@H](C)[C@@H]1NC(=O)[C@H](Cc2ccc(O)cc2)NC(=O)[C@@H](N)CSSC[C@@H](C(=O)N2CCC[C@H]2C(=O)N[C@@H](CC(C)C)C(=O)NCC(N)=O)NC(=O)[C@H](CC(N)=O)NC(=O)[C@H](CCC(N)=O)NC1=O [Oxytocin (Syntocinon)] | 0.56 | 0.47 | 0.55 | 0.67 | 0.68 | 0.52
32 | C[C@@H](O)[C@H]1C(=O)N2C(C(=O)O)=C(S[C@@H]3CN[C@H](CNS(N)(=O)=O)C3)[C@H](C)[C@H]12 [Doripenem Hydrate] | 1.17 | 1.29 | 1.3 | 0.55 | 0.81 | 0.65
33 | C=CC(=O)N1CCC[C@@H](n2nc(-c3ccc(Oc4ccccc4)cc3)c3c(N)ncnc32)C1 | 0.97 | 0.92 | 1.3 | 1.05 | 0.78 | 0.67
34 | CN(C)CCOC(=O)COc1ccc(Cl)cc1 [Meclofenoxate (Centrophenoxine) HCl] | 0.79 | 0.73 | 0.62 | 0.59 | 0.79 | 0.86
35 | OCCOCCN1CCN(C(c2ccccc2)c2ccc(Cl)cc2)CC1 (centres undefined) [Hydroxyzine 2HCl] | 0.94 | 0.79 | 0.77 | 0.85 | 0.72 | 1
36 | CC1(COc2ccc3c(c2)ncn3-c2ccc3cccc(N4CCC(N)CC4)c3n2)COC1 | 0.67 | 0.89 | 0.8 | 0.91 | 0.93 | 0.85
37 | CC(=O)O[C@H]1C(=O)[C@@]2(C)[C@H]([C@H](OC(=O)c3ccccc3)[C@]3(O)C[C@H](OC(=O)[C@H](O)[C@@H](NC(=O)c4ccccc4)c4ccccc4)C(C)=C1C3(C)C)[C@]1(OC(C)=O)CO[C@@H]1C[C@@H]2O [Paclitaxel] | 0.85 | 1.22 | 1.03 | 0.75 | 0.72 | 0.57
38 | NCC[C@H](O)C(=O)N[C@@H]1C[C@H](N)[C@@H](O[C@H]2O[C@H](CN)[C@@H](O)[C@H](O)[C@H]2O)[C@H](O)[C@H]1O[C@H]1O[C@H](CO)[C@@H](O)[C@H](N)[C@H]1O [Amikacin hydrate] | 1.19 | 1.32 | 1.04 | 0.98 | 0.82 | 1.3
39 | CC(C)c1nc(CN(C)C(=O)N[C@@H](CCN2CCOCC2)C(=O)N[C@H](CC[C@H](Cc2ccccc2)NC(=O)OCc2cncs2)Cc2ccccc2)cs1 [Cobicistat (GS-9350)] | 0.89 | 0.85 | 0.7 | 0.79 | 0.85 | 0.76
40 | CC(/C=C1\SC(=S)N(CC(=O)O)C1=O)=C\c1ccccc1 [Epalrestat] | 1.03 | 0.84 | 1.33 | 1.11 | 1.06 | 1.11
41 | CCn1cc(C(=O)O)c(=O)c2cc(F)c(N3CCNC(C)C3)c(F)c21 (centres undefined) [Lomefloxacin HCl] | 1.3 | 1.11 | 0.94 | 1.28 | 1.12 | 1.06
42 | NCCS [Cysteamine HCl] | 1.21 | 1.26 | 1.16 | 1.16 | 1.14 | 1.08
43 | CCCN(CCC)S(=O)(=O)c1ccc(C(=O)O)cc1 [Probenecid] | 0.86 | 0.7 | 0.61 | 0.54 | 0.83 | 0.68
44 | CCCCCCCCCCCCCCCC(=O)O[C@@H]1[C@@H](O)[C@@H](O)[C@@H]([C@H](NC(=O)[C@@H]2C[C@@H](CCC)CN2C)[C@H](C)Cl)O[C@@H]1SC [Clindamycin palmitate HCl] | 1.09 | 1.09 | 1.45 | 0.97 | 1.3 | 1.5
